# According to patent US20030113837:
# The exact form of at least one protein or probe is not confirmed. Protein sequences can lack the tags named with them.
# Legend:
# [1] = biological target: T1, TnpI (wild-type) (Bacillus thuringiensis) (UniProt P10020); test: activity in cells; conditions: E. coli, protein in cells
# T1 sequence: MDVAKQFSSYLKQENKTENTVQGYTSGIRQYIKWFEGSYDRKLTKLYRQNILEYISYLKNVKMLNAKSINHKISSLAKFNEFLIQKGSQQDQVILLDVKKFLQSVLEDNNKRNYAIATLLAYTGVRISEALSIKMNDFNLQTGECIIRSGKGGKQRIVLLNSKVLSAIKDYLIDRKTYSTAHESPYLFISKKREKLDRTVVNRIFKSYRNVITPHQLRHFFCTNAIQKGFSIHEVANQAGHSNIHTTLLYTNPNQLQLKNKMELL
# [2] = biological target: T2, H-TnpI (Bacillus thuringiensis) (UniProt P10020); test: enzyme reaction in vitro; conditions: 37 C, purified recombinant protein, protein details: N-terminal His-tag (pBAD/HisA, Invitrogen), variant of TRT″
# T2 sequence: T1 sequence
# [3] = biological target: T3, TnpI (partially purified wild-type) (Bacillus thuringiensis) (UniProt P10020); test: enzyme reaction in vitro; conditions: activity similar to His-tagged protein, 37 C, purified recombinant protein, variant of TRT″
# T3 sequence: T1 sequence
sequence,measurement,setting,value
GGTACCGCCAGCATTTCGGAAAAAAACCACGCTAAGAAAATCAGAGTTAAAAAATCAGAAAATATATCATTATTCCTTGACACATACATGTTCTTTTTTTATACAAAAAATAATACAACACAATATTAATTGTGTTGTATTAGGTGTTATAATAAATATAAATCTAGGGGTTTAACGCAACACAATTTATCGATAAATAAATACTTTTAGACGCAACACAATTTATAGACGCGGAGGAAATCAC (double strand) [TRT″],activity on this sequence,"[1]; arabinose-induced TnpI, two direct repeat copies on plasmid, recombination detected",active
TAATACAACACAATATTAATTGTGTTGTATTA (double strand) [TRT],activity on this sequence,"[2]; two directly repeated sites on supercoiled plasmid pGIV016, same buffer, slower than TRT′, catenanes of varied complexity and knots",active
same,activity on this sequence,[3]; plasmid pGIV016,active
TAATACAACACAATATTAATTGTGTTGTATTAGGTGTTATAATAAATATAAATCTAGGGGTTTAACGCAACACAATTTATCGATAAATAAATACTTTTAGACGCAACACAATTTATAG (double strand) [TRT′],activity on this sequence,"[1]; expected deletion product only with TnpI, variant of TRT″",active
same,activity on this sequence,"[2]; two directly repeated sites on supercoiled plasmid pGIV014, 50 mM Tris pH 8.0, 25 mM KCl, 1.25 mM EDTA, 5 mM spermidine, faster than TRT",active
same,activity on this sequence,[3]; plasmid pGIV014,active
